At least one structure is not confirmed: it was looked up by name or label, or the drawing left a doubt.
What was measured:
Format in all cases: cell-based, human
[1] = system: IκBα phosphorylation and degradation in MM.1S cells; experiment: Immunoblot of IκBα phosphorylation and degradation triggered by TNFα in MM.1S cells; settings: Dex 1 μM 18 h, PS-341 5 μM 60 min, compound 1 10 μM 90 min; TNFα 5 ng/mL 5 min; FIG. 7
Method: MM cells were cultured with PS-341 or compound 1; harvested; washed; and lysed using lysis buffer: 50 mM Tris-HCl (pH 7.4), 150 mM NaCl, 1% NP-40, 5 mM EDTA, 5 mM NaF, 2 mM Na3VO4, 1 mM PMSF, 5 μg/mL leupeptin, and 5 μg/mL aprotinin. For detection of phospho-IκBα, IκBα, phospho-MAPK, phospho-STAT3, ERK2 or alpha-tubulin, cell lysates were subjected SDS-PAGE, transferred to PVDF membrane (Bio-Rad Laboratories, Hercules, Calif.), and immunoblotted with anti-phospho-IκBα, -IκBα, -phospho-MAPK, or -phospho-STAT3 Abs (Cell Signaling, Beverly, Mass.), and anti-alpha-tubulin (Sigma) Abs.
Inhibition of IκBα phosphorylation by compound 1 was assayed in MM.1S and patient MM cells triggered by TNFα. […] To study the dose-dependent effect of compound 1, MM.1S cells were pre-treated with 1.25-40 μM compound 1 for 90 min, and then stimulated by TNFα (5 ng/mL).
The effect of Dex, compound 1, PS-341 and/or IL-6 on TNFα induced phosphorylation of IκBα in MM.1S cells was next examined. […] In contrast compound 1, in the presence or absence of IL-6, inhibits phosphorylation of IκBα. Dex inhibits TNFα-induced degradation of IκBα, whereas IL-6 blocks this effect. Both PS-341 and compound 1 inhibit degradation of IκBα, in the presence or absence of IL-6.

[2] = system: NF-κB activation in MM.1S cells; experiment: Electrophoretic mobility shift assay (EMSA) of NF-κB activation in MM.1S cells
Method: Electrophoretic mobility shift analyses (EMSA) were carried out as in previous studies (Hideshima et al., Oncogene 20:4519 (2001); Hideshima et al., Cancer Res. 61:3071 (2001)). Briefly, MM.1S cells were pre-incubated with PS-341 (5 μM for 1 h) and compound 1 (10 μM for 90 min) before stimulation with TNFα (5 ng/mL) for 10 or 20 min. Cells were then pelleted, resuspended in 400 μL of hypotonic lysis buffer (20 mM HEPES, pH 7.9, 10 mM KCl, 1 mM EDTA, 0.2% Triton X-100, 1 mM Na3VO4, 5 mM NaF, 1 mM PMSF, 5 μg/mL leupeptin, 5 μg/mL aprotinin), and kept on ice for 20 min. After centrifugation (14000 g for 5 min) at 4° C., the nuclear pellet was extracted with 100 μL hypertonic lysis buffer (20 mM HEPES, pH 7.9, 400 mM NaCl, 1 mM EDTA, 1 mM Na3VO4, 5 mM NaF, 1 mM PMSF, 5 μg/mL leupeptin, 5 μg/mL aprotinin) on ice for 20 min. After centrifugation (14000 g for 5 min) at 4° C., the supernatant was collected as nuclear extract. […]
Since NF-κB activation requires phosphorylation, ubiquitination, and degradation of IκBα, we next examined whether compound 1 could inhibit NF-κB activation, assessed by EMSA. […]

[3] = system: IκBα protein expression; experiment: Western blotting of IκBα protein expression in MM.1S cells; settings: Dex 1 μM for 0-36 h, FIG. 6A
[4] = system: MM.1S cells; experiment: DNA synthesis ([3H]-TdR uptake) in MM.1S cells with Dex, IL-6, Thal or IMiD3; settings: Dex 0.01 and 0.1 μM, 48 h; FIG. 8A
Method: Proliferation was measured as previously described (Hideshima et al., Blood 96:2943 (2000)). MM cells (3×10^4 cells/well) were incubated in 96-well culture plates (Costar, Cambridge, Mass.) in the presence of media, PS-341, compound 1 and/or Dex or recombinant human IL-6 (Genetics Institute, Cambridge, Mass.) for 48 h at 37° C. DNA synthesis was measured by [^3H]-thymidine ([^3H]-TdR, NEN Products, Boston, Mass.) uptake. Cells were pulsed with [^3H]TdR (0.5 μCi/well) during the last 8 h of 48 h cultures. All experiments were performed in triplicate.

## C[C@@H]1C[C@H]2[C@@H]3CCC4=CC(=O)C=C[C@]4(C)[C@@]3(F)[C@@H](O)C[C@]2(C)[C@@]1(O)C(=O)CO [Dex, dexamethasone, reference compound]
[1]
  TNFα-induced degradation of IκBα: inhibits
[2]; Dex 1 μM for 18 h, then compound 1 2.5-10 μM for 90 min, FIG. 6C
  effect of Dex pre-treatment on the inhibitory effect of compound 1 on NF-κB activation: enhances
[2]; pre-treatment with Dex 1 μM for 18 h, FIG. 6B
  TNFα induced activation of NF-κB (EMSA): abrogated
[3]
  IκBα expression: significantly induces
[4]
  IL-6 induced proliferation of MM.1S cells: inhibited

— patent US9248124B2, “Use of inhibitors of IκB kinase for the treatment of cancer” (Millennium Pharmaceuticals, Inc., priority 2001, dated 2016)
